# Hit rate of the full screen: of about 340,000 compounds, about 170 (0.05%) were called active. Inconclusive means that the source gave no clear call. Such entries were picked first, then a sample of the others. Calls follow the shape of the dose curve; as a rule, active = well fitted inhibition curve with a large enough effect in the signal ratio, with a control signal flat (not every such curve was filed as active); inconclusive = small, poorly fitted or top-dose-only effect, or effect the other way, or a change in a side signal; inactive = flat fitted curve, though single readings scatter; the % refers to the signal ratio. A potency beside an inconclusive call is a rough fit, not a confirmed value.
# Experiment: qHTS Assay to Find Inhibitors of Chronic Active B-Cell Receptor Signaling;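 as to activity change, negative = inhibition: plate controls were basal doxycycline-induced cells for no effect and cells given 10 µM MG132 for full effect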
# Settings: ABC-DLBCL IkBa-CBG/CBR reporter, luminescence ratio (green luciferase fused to IkBa over red control in TMD8 lymphoma cells), 4 h; activity change, negative = inhibition: at 46.1 µM (top of the series)
# Method in brief: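 TMD8 ABC-DLBCL cells carrying doxycycline-inducible green luciferase fused to IkappaBalpha plus unfused red luciferase were exposed to compounds (up to 46 uM) for 4 hrs at 37C. Activity came from the overlap-corrected green/red luminescence ratio.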
# Potency is read from the fitted curve at half-maximal effect.
Structure (SMILES),"activity change, negative = inhibition",Potency
Cc1ccccc1C1c2[nH]c3ccccc3c2CCN1Cc1cccn1-c1ncccn1 (stereo not drawn),inconclusive: 1.61%,
COc1cc(/C=N/N=C(\N)c2nonc2N)ccc1O,,"inconclusive: 22.4 µM [falling, single point]"
Cc1sc2c(c1C)CN(Cc1ccncc1)CN2C(=O)c1ccco1,inconclusive: 4.16%,
CCn1c(O)c(C=C2N=c3ccccc3=N2)sc1=S,,"inconclusive: 6.31 µM [falling, single point]"
O=c1c(/C=C(\O)c2ccccc2)nc2ccccc2n1-c1ccccc1,,"inconclusive: 32.6 µM [falling, single point]"
CCOC(=O)c1cc(C)sc1NC(=O)CN1CCN(C(=O)c2ccco2)CC1,inconclusive: 0.755%,
COc1ccc(OC)c(C2CC(=O)Nc3cc(OC)c(OC)c(OC)c32)c1 (stereo not drawn),,"inconclusive: 8.2 µM [falling, partial curve, poor fit]"
CCc1ccc(CN(C)CC(=O)Nc2ccccc2[N+](=O)[O-])cc1,inconclusive: 12.9%,
COC(=O)c1c(C)c2c(C)cc3ccccn3c-2c1C(=O)OC,inactive,
CC(=O)c1ccc(NC(=O)C2CCCN(S(=O)(=O)c3c(C)[nH]c(=O)[nH]c3=O)C2)cc1 (stereo not drawn),,"inconclusive: 22.4 µM [falling, single point]"
CCN1CCN(C(=O)C(C)Oc2ccc(S(=O)(=O)N3CCCC3)cc2C(N)=O)CC1 (stereo not drawn),inconclusive: 1.61%,
CN(C)CC1CCCCC1OC(=O)c1ccc(S(=O)(=O)N(C)c2ccccc2)cc1 (stereo not drawn),inconclusive: -2.52%,
O=C(NC1CC2CCCC(C1)N2Cc1ccccc1)c1ccc([N+](=O)[O-])cc1 (stereo not drawn),inactive,
COc1cc2nc(N3CCNCC3)nc(N)c2cc1OC,inactive,
C[C@@H](C(=O)NCc1ccccc1)[C@H]1C[C@]1(C)[C@H](NC(=O)OCc1ccccc1)c1ccccc1,inconclusive: -6.62%,
Oc1ccccc1C(=S)N1CCN(C(=S)c2ccccc2O)CC1,inconclusive: -2.54%,
Cc1ccc(/C=N/NC(=O)c2ccc(-n3cnnn3)cc2)cc1,,"inconclusive: 20.6 µM [falling, single point]"
O=[N+]([O-])c1ccc(S(=O)(=O)Nc2nc3ccccc3nc2Nc2ccccc2)cc1,inactive,
O=C(NC(=S)NCC1CCCO1)c1ccc(Cl)cc1 (stereo not drawn),inactive,
O=C(CN1CCN(c2ccc(O)cc2)CC1)NC(c1ccccc1)c1ccccc1,inactive,
C[C@H]1CN=C(Nc2ccccc2)N1CC1CCC1,inactive,
O=C(Nc1c(C(=O)Nc2cccc(F)c2)oc2ccccc12)c1ccc2c(c1)OCO2,inactive,
CC(NS(=O)(=O)c1ccc(Cl)cc1)C(=O)NCCC1=CCCCC1 (stereo not drawn),inactive,
O=C(Cc1ccc(-c2ccccc2)cc1)NNC(=S)NCc1ccco1,inconclusive: 7.37%,
COc1ccc(C2=NN(C(=O)c3cccs3)C(c3ccccc3OC)C2)cc1OC (stereo not drawn),,"inconclusive: 17.8 µM [falling, partial curve]"
CCC(=O)c1ccccc1OCCCN1C(=O)NC(C)(C)C1=O,inconclusive: -2.07%,

Structure (SMILES),"activity change, negative = inhibition",Potency
Cn1c(=O)c2[nH]c(N3CCN(c4cccc(O)c4)CC3)nc2n(C)c1=O,inconclusive: 17.5%,
Cc1cc(C)c(S(=O)(=O)N(C)CC(=O)NCc2ccncc2)c(C)c1,inconclusive: 13.1%,
CCCc1nc(SCC(=O)Nc2ccc(N3CCOCC3)cc2)c2ccccc2n1,inconclusive: 7.95%,
NC(=O)c1ccccc1NC(=O)/C=C/C(=O)O,inconclusive: 17.5%,
CCSc1nc2sc3c(c2c(=O)[nH]1)CCc1ccccc1-3,inconclusive: -14.5%,
O=C(CCNc1ccc(Cc2ccncc2)cc1)c1ccc([N+](=O)[O-])cc1,inconclusive: 4.1%,
CCOC(=O)CC1C(=O)NCCN1c1nc2ccc(C)cn2c(=O)c1/C=C1\SC(=S)N(CC(C)C)C1=O (stereo not drawn),,"inconclusive: 3.55 µM [falling, partial curve, poor fit]"
CC(C)C1CC(CCN)(Cc2ccccc2)CCO1 (stereo not drawn),,"inconclusive: 35.5 µM [rising, partial curve, poor fit]"
COC(=O)Cc1ccc(N(Cc2ccccc2F)S(=O)(=O)c2ccc(C)cc2)cc1,inactive,
COc1ccccc1N1CCN(CC(=O)Nc2ccc(Cl)c(C(F)(F)F)c2)CC1,,"inconclusive: 16.4 µM [falling, partial curve, poor fit]"
O=C(CN1C(=O)NC2(CCCCCC2)C1=O)N1CCN(c2ccccc2)CC1,inactive,
CC(C)(C)c1ccc2c(c1)OC(C(=O)N/N=C\c1ccccn1)CO2 (stereo not drawn),inconclusive: -4.58%,
COC(=O)c1ccc2c(=O)n(CCCCCC(=O)NCc3ccc4c(c3)OCO4)c(=O)[nH]c2c1,inconclusive: 9.47%,
O=C(Nc1ccc(F)cc1)c1cccc(N2C(=O)C3C4CCC(C4)C3C2=O)c1 (stereo not drawn),inconclusive: -5.57%,
Oc1cccc(/C=N/NC(=S)NCCN2CCOCC2)c1O,inconclusive: -16.3%,
O=C(N/N=C1/C(=O)c2cccc3cccc1c23)c1ccc(Cl)cc1,,"inconclusive: 1.3 µM [falling, full curve, poor fit]"
COc1ccc(-c2csc3nc(C(C)(C)C)oc(=O)c23)cc1OC,,"inconclusive: 12.6 µM [rising, partial curve, poor fit]"
COc1ccc2c(C(=O)CCl)c[nH]c2c1,,"inconclusive: 15.8 µM [falling, single point]"
CC(C)(C)NC(=O)NC(=O)CN1CCN(C(c2ccccc2)c2ccccc2)CC1,inactive,
COc1ccc(CCNC(=O)C(=O)NCC2OCCN2S(=O)(=O)c2ccc(Br)cc2)cc1 (stereo not drawn),inconclusive: 0.158%,
CCc1cc(=O)oc2cc(C)cc(OCC(=O)NCc3ccccn3)c12,inconclusive: 1.71%,
O=C(CCl)N(Cc1cc(=O)[nH]c2ccccc12)c1ccccc1,,"inconclusive: 12.6 µM [falling, single point]"
CCN(CC)S(=O)(=O)c1cccc(C(=O)N/N=C/c2cc(OC)c(O)c(OC)c2)c1,inactive,
Cc1cc(=O)oc2cc(NC(=O)C3CCCC3)ccc12,inconclusive: -4.75%,
CCC(Sc1nnc(-c2ccc(OC)cc2)c(-c2ccc(OC)cc2)n1)C(=O)Nc1cccc(OC)c1 (stereo not drawn),inconclusive: -0.707%,
O=C1CSC(c2cn(-c3ccccc3)nc2-c2ccc3c(c2)OCCO3)N1CCN1CCOCC1 (stereo not drawn),,"inconclusive: 11.2 µM [falling, partial curve, poor fit]"

# Looked up above.
# Entry of COc1ccc(-c2csc3nc(C(C)(C)C)oc(=O)c23)cc1OC under Potency: inconclusive: 12.6 µM [rising, partial curve, poor fit]
# Entry of CCN(CC)S(=O)(=O)c1cccc(C(=O)N/N=C/c2cc(OC)c(O)c(OC)c2)c1 under activity change, negative = inhibition: inactive
# Entry of COC(=O)c1ccc2c(=O)n(CCCCCC(=O)NCc3ccc4c(c3)OCO4)c(=O)[nH]c2c1 under activity change, negative = inhibition: inconclusive: 9.47%

# Carrying on.

Structure (SMILES),"activity change, negative = inhibition",Potency
Oc1ccc(/C=N/Nc2nn3cnnc3c3ccccc23)cc1,inconclusive: -1.67%,
Cn1ncc2c(N3CCN(c4ccccc4Cl)CC3)ncnc21,,"inconclusive: 12.6 µM [falling, partial curve]"
O=S(=O)([N-]c1nc2ccccc2nc1-[n+]1ccccc1)c1ccc(F)cc1,inactive,
Cn1cc(-c2ccccc2C(=O)O)c(=O)c2cc(Cl)ccc21,inactive,
CN(CCO)C(=O)c1c(NC(=O)c2ccccc2)sc2c1CCCC2,,"inconclusive: 11.2 µM [falling, partial curve]"
Cc1ccc(C)c(NC(=O)CSc2nncn2C)c1,inactive,
CC(C)CN(C(=O)COC(=O)C12CC3CC(CC(O)(C3)C1)C2)C1CCS(=O)(=O)C1 (stereo not drawn),inconclusive: 4.87%,
O=c1[nH]nc(-c2ccc(OCc3ccc(Cl)cc3Cl)cc2)o1,inactive,
COc1cccc(N=CC2=C(O)CC(C)(C)CC2=O)c1,,"inconclusive: 32.6 µM [falling, partial curve, poor fit]"
Cc1csc2c(N3CCN(C(=O)Nc4ccccc4)CC3)ncnc12,inconclusive: 4.51%,
CCCCCCc1nc2c(=O)[nH]c3ccccc3c2o1,inconclusive: 16.8%,
O=C(CSc1nnc2c(n1)[nH]c1ccc(F)cc12)N1CCOCC1,inactive,
NC(=O)c1nsc(C(=O)N(c2ccc3c(c2)OCCO3)C(C(=O)NCC2CCCO2)c2ccc(F)cc2)c1N (stereo not drawn),inactive,
CCOc1ccccc1NC(=S)NC(=O)c1ccco1,inactive,
CC(C)(C)NS(=O)(=O)c1ccc(C(=O)Nc2ccc3c(c2)OCO3)cc1,,"inconclusive: 3.55 µM [rising, partial curve, poor fit]"
O=C1CC(N2CCN(Cc3ccc4c(c3)OCO4)CC2)C(=O)N1CCc1ccccc1 (stereo not drawn),inconclusive: -11.7%,
Cc1nnc(N2CCCC(C(=O)NCc3ccc(OC(C)C)cc3)C2)c2nn(-c3ccccc3)c(C)c12 (stereo not drawn),inconclusive: 0.311%,
Cc1cc2nnn(-c3nnc(-c4ccccc4)c4ccccc34)c2cc1C,inconclusive: 0.586%,
Cc1cccc(N2CCN(C(=O)c3ccc(NC(=O)C4CCCO4)cc3)CC2C)c1 (stereo not drawn),inconclusive: -0.42%,
Cc1ccc(NC(=S)N(CCN2CCCCC2)Cc2ccco2)cc1Cl,inactive,
CCOC(=O)c1ccc(N2C(=O)c3n[nH]c(C)c3C2c2ccc(OC)cc2OC)cc1 (stereo not drawn),inconclusive: -14%,
Cc1cccc(N/N=C(\C(N)=O)C2=NC(C)(C)Cc3ccccc32)c1,inconclusive: 3.9%,
CCOC(=O)C1=C(N)Oc2cc(O)ccc2C1c1ccc([N+](=O)[O-])cc1 (stereo not drawn),,"inconclusive: 20 µM [rising, partial curve, poor fit]"
Cc1cccc(C(=O)NN/C=C/C(=O)c2ccccc2)c1,,"inconclusive: 20 µM [falling, partial curve]"
Cc1nn(-c2ccccc2)c(N2CCCC2)c1/C=N/NC(=O)c1cc(-c2ccccn2)nc2ccccc12,inconclusive: 0.856%,
COc1cccc(-n2c(SC)nnc2-c2cnccn2)c1,,"inconclusive: 5.62 µM [falling, single point]"

# Reference: PubChem BioAssay AID493014 (National Center for Advancing Translational Sciences (NCATS), 2011)
